Assay results: patent US20240010693A1, “PEPTIDES FROM HUMAN B-CASEIN THAT HAVE ANTI-BACTERIAL ACTIVITY” (priority 2020, published 2024)
Some entries share one result that the patent states for a list of compounds.

Tested on: G. vaginalis
Assay: Direct kill assay on HBT bilayer Gardnerella media
Type: cell-based, Gardnerella vaginalis
Protocol: When we subjected G. vaginalis to direct kill assays using HBCA1 and HBCA2, we observed that both peptides render G. vaginalis non-viable within 30 minutes, as indicated by loss of bacterial growth on HBT bilayer Gardnerella media (FIG. 9).

In the case of “TVYTKGRVMPVLKSPTIPFFDPQI (listed as Homo sapiens) [HBCA1]”, the “time to non-viability of G. vaginalis” value is reported as ≤ 30 min.
For “RVMPVLKSPTIP (listed as Homo sapiens) [HBCA2]”, the “time to non-viability of G. vaginalis” value was ≤ 30 min.
